Structures can show the parent of a compound that is named as a salt. The list shows a part of the results. Most values come without repeats; read them as rough.
Legend:
Saos-2 = experiment: cell viability (CCK-8) relative to DMSO control (% of control); higher = less cytotoxic; conditions: 10 µM; 48 h
U2OS = experiment: as above; conditions: 10 µM; 48 h

SMILES | cell viability (Saos-2) | cell viability (U2OS)
CCCCCCCN(CC)CCCC(O)c1ccc(NS(C)(=O)=O)cc1 (configuration not stated) [Ibutilide Fumarate] | 104 | 107
CCc1cc(C(N)=S)ccn1 [Ethionamide] | 109 | 93.8
CC(C)(O/N=C(\C(=O)N[C@@H]1C(=O)N2C(C(=O)[O-])=C(C[n+]3ccccc3)CS[C@H]12)c1csc(N)n1)C(=O)O [Ceftazidime Hydrate] | 68.7 | 87.9
CC1COc2c(N3CCN(C)CC3)c(F)cc3c(=O)c(C(=O)O)cn1c23 (configuration not stated) [Ofloxacin] | 68.5 | 92.8
CC(C)n1c(/C=C/C(O)CC(O)CC(=O)O)c(-c2ccc(F)cc2)c2ccccc21 (configuration not stated) [Fluvastatin . sodium salt] | 36.8 | 101
CC(c1cc2ccccc2s1)N(O)C(N)=O (configuration not stated) [Zileuton] | 63.4 | 90.4
Cc1nc(Nc2ncc(C(=O)Nc3c(C)cccc3Cl)s2)cc(N2CCN(CCO)CC2)n1 [Dasatinib] | 57.2 | 47
CCc1c2c(nc3ccc(OC(=O)N4CCC(N5CCCCC5)CC4)cc13)-c1cc3c(c(=O)n1C2)COC(=O)[C@]3(O)CC [Irinotecan . hydrochloride . trihydrate] | 52.6 | 84.2
C[N+](C)(C)CCOC(N)=O [Carbamoylcholine chloride] | 63.4 | 106
CCCN1CCCC[C@H]1C(=O)Nc1c(C)cccc1C [Ropivacaine·HCl Monohydrate] | 108 | 96.6
O=C1c2cccc3c2[C@H](CCC3)CN1[C@@H]1CN2CCC1CC2 [Palonosetron·HCl] | 78.7 | 80.3
CCCCCCCCCCCCCCCC(=O)O[C@@H]1[C@@H](O)[C@@H](O)[C@@H]([C@H](NC(=O)[C@@H]2C[C@@H](CCC)CN2C)[C@H](C)Cl)O[C@@H]1SC [Clindamycin Palmitate·HCl] | 60.5 | 104
C1N2CN3CN1CN(C2)C3 [Methenamine Hippurate] | 95.6 | 105
O=C(O)c1ccc(-n2nc(-c3ccccc3O)nc2-c2ccccc2O)cc1 [Deferasirox] | 83.7 | 75.1
NS(=O)(=O)c1cc(C(=O)O)c(NCc2ccco2)cc1Cl [Furosemide] | 66.1 | 106
Nc1nc(/C(=C/CC(=O)O)C(=O)N[C@@H]2C(=O)N3C(C(=O)O)=CCS[C@H]23)cs1 [Ceftibuten] | 99.3 | 46.3
CCCCC(=O)N(Cc1ccc(-c2ccccc2-c2nnn[nH]2)cc1)[C@H](C(=O)O)C(C)C [Valsartan] | 136 | 84.3
COC(=O)[C@H]1[C@H]2C[C@@H]3c4[nH]c5cc(OC)ccc5c4CCN3C[C@H]2C[C@@H](OC(=O)c2cc(OC)c(OC)c(OC)c2)[C@@H]1OC [Reserpine] | 113 | 84.8
C[C@@H]1NC(=O)[C@@H](N)CNC(=O)[C@H](C2CCNC(=N)N2)NC(=O)/C(=C/NC(N)=O)NC(=O)[C@H](CNC(=O)CC(N)CCCN)NC1=O.N=C1NCC[C@H]([C@@H]2NC(=O)/C(=C/NC(N)=O)NC(=O)[C@H](CNC(=O)C[C@@H](N)CCCN)NC(=O)[C@H](CO)NC(=O)[C@@H](N)CNC2=O)N1 [Capreomycin Sulfate] | 116 | 106
OC(c1cc(C(F)(F)F)nc2c(C(F)(F)F)cccc12)C1CCCCN1 (configuration not stated) [Mefloquine . hydrochloride] | 51 | 36.2
CCCCN1CCCCC1C(=O)Nc1c(C)cccc1C (configuration not stated) [Bupivacaine hydrochloride monohydrate] | 67 | 101

Single entries from the results shown:
CC(c1cc2ccccc2s1)N(O)C(N)=O (configuration not stated) [Zileuton] | cell viability (Saos-2): 63.4
CCc1cc(C(N)=S)ccn1 [Ethionamide] | cell viability (Saos-2): 109
C[N+](C)(C)CCOC(N)=O [Carbamoylcholine chloride] | cell viability (U2OS): 106

Following part:

SMILES | cell viability (Saos-2) | cell viability (U2OS)
CCN(CC)CCCC(C)Nc1ccnc2cc(Cl)ccc12 (configuration not stated) [Chloroquine Diphosphate] | 61.2 | 84.3
Nc1nc(Cl)nc2c1ncn2[C@H]1C[C@H](O)[C@@H](CO)O1 [Cladribine] | 62.9 | 57.9
C/C(=C\C(=O)OCCCCCCCCC(=O)O)C[C@@H]1OC[C@H](C[C@@H]2O[C@H]2[C@@H](C)[C@H](C)O)[C@@H](O)[C@H]1O [Mupirocin] | 122 | 102
Nc1c(CC(=O)O)cccc1C(=O)c1ccc(Br)cc1 [Bromfenac] | 106 | 103
CC(C)NCC(O)COc1ccc(CCOCC2CC2)cc1 (configuration not stated) [Betaxolol hydrochloride] | 61 | 108
Clc1ccc(COC(Cn2ccnc2)c2ccc(Cl)cc2Cl)c(Cl)c1 (configuration not stated) [Miconazole nitrate] | 112 | 143
CN/C(=N\CCSCc1nc[nH]c1C)NC#N [Cimetidine] | 60.2 | 114
C#C[C@]1(O)CC[C@H]2[C@@H]3CCC4=CC(=O)CC[C@@H]4[C@H]3CC[C@@]21C [Norethindrone] | 71.2 | 97.9
C[C@H]1O[C@H](O[C@H]2[C@H](O)[C@@H](O)[C@@H](O[C@H]3[C@H](O)[C@@H](O)C(O)O[C@@H]3CO)O[C@@H]2CO)[C@H](O)[C@@H](O)[C@@H]1N[C@H]1C=C(CO)[C@@H](O)[C@H](O)[C@H]1O (some centres not stated) [Acarbose] | 94.9 | 82.8
CCC[C@@H]1C[C@@H](C(=O)N[C@@H]([C@H]2O[C@H](SC)[C@H](O)[C@@H](O)[C@H]2O)[C@@H](C)O)N(C)C1 [Lincomycin] | 65.4 | 92.1
C[C@@H](O[C@H]1OCCN(Cc2n[nH]c(=O)[nH]2)[C@H]1c1ccc(F)cc1)c1cc(C(F)(F)F)cc(C(F)(F)F)c1 [Aprepitant] | 64.9 | 95.2
Clc1ccc(CSC(Cn2ccnc2)c2ccc(Cl)cc2Cl)cc1 (configuration not stated) [Sulconazole Nitrate] | 108 | 127
O=C(O[C@@H]1C[C@@H]2C[C@H]3C[C@H](C1)N2CC3=O)c1c[nH]c2ccccc12 [Dolasetron] | 60.6 | 111
COc1cc([C@@H]2c3cc4c(cc3[C@@H](O[C@@H]3O[C@@H]5CO[C@@H](C)O[C@H]5[C@H](O)[C@H]3O)[C@H]3COC(=O)[C@H]23)OCO4)cc(OC)c1O [Etoposide] | 37.1 | 69
CC(=O)CC(c1ccccc1)c1c(O)c2ccccc2oc1=O (configuration not stated) [Warfarin] | 112 | 78.3
CN1C(=O)OC(C)(C)C1=O [Trimethadione] | 82.1 | 83.8
CNC(C)C1CCC(N)C(OC2C(N)CC(N)C(OC3OCC(C)(O)C(NC)C3O)C2O)O1 (configuration not stated) [Gentamycin Sulfate] | 67 | 95.9
NCCNCCNCCN [Trientine Dihydrochloride] | 104 | 81.9
O=C(CCCN1CCC(O)(c2ccc(Cl)cc2)CC1)c1ccc(F)cc1 [Haloperidol] | 58.8 | 112
CN(C)CCC=C1c2ccccc2C=Cc2ccccc21 [Cyclobenzaprine·HCl] | 104 | 87.3
Nc1nc2[nH]cnc2c(=S)[nH]1 [Thioguanine] | 66 | 54.5

SMILES | cell viability (Saos-2) | cell viability (U2OS)
C[n+]1ccccc1/C=N/O [Pralidoxime Chloride] | 101 | 83.3
CO/N=C(\C(=O)N[C@@H]1C(=O)N2C(C(=O)O)=C(COC(N)=O)CS[C@H]12)c1ccco1 [Cefuroxime·Na] | 103 | 75.3
Cc1nnc(SCC2=C(C(=O)O)N3C(=O)[C@@H](NC(=O)Cn4cnnn4)[C@H]3SC2)s1 [Cefazolin . sodium] | 121 | 90.8
CC(C)(C)C(=O)OCOP(=O)(COCCn1cnc2c(N)ncnc21)OCOC(=O)C(C)(C)C [Adefovir Dipivoxil] | 89.6 | 77.5
CN(C)CCOC(=O)C(c1ccccc1)C1(O)CCCC1 (configuration not stated) [Cyclopentolate] | 110 | 91.6
CCC(=O)O[C@]1(C(=O)SCF)[C@H](C)C[C@H]2[C@@H]3C[C@H](F)C4=CC(=O)C=C[C@]4(C)[C@@]3(F)[C@@H](O)C[C@@]21C [Fluticasone Propionate] | 99 | 101
C[C@H](CCC(=O)O)[C@H]1CC[C@H]2[C@@H]3[C@@H](O)C[C@@H]4C[C@H](O)CC[C@]4(C)[C@H]3CC[C@]12C [Ursodiol] | 139 | 79.3
CC(C)Cn1cnc2c(N)nc3ccccc3c21 [Imiquimod] | 67.5 | 97.1
CCCCC(C)(O)C/C=C/[C@H]1[C@H](O)CC(=O)[C@@H]1CCCCCCC(=O)OC (mixture of isomers) [Misoprostol] | 64.3 | 98.5
C=C[C@H]1CN2CC[C@H]1C[C@H]2[C@H](O)c1ccnc2ccc(OC)cc12 [Quinine hydrochloride dihydrate] | 60.6 | 132
O=C(O)CCCCCCCC(=O)O [Azelaic Acid] | 127 | 103
COC(=O)CCc1ccc(OCC(O)CNC(C)C)cc1 (configuration not stated) [Esmolol] | 69.5 | 101
CO[C@H]1/C=C/O[C@@]2(C)Oc3c(C)c(O)c4c(c3C2=O)C2=NC3(CCN(CC(C)C)CC3)NC2=C(NC(=O)/C(C)=C\C=C\[C@H](C)[C@H](O)[C@@H](C)[C@@H](O)[C@@H](C)[C@H](OC(C)=O)[C@@H]1C)C4=O [Rifabutin] | 112 | 107
CC(C)NCC(O)COc1ccc(CC(N)=O)cc1 (configuration not stated) [Atenolol] | 68.7 | 103
N[C@@H](C(=O)N[C@@H]1C(=O)N2C(C(=O)O)=C(Cl)CS[C@H]12)c1ccccc1 [Cefaclor] | 113 | 64.1
CC(=O)OCC(=O)[C@@]12OC(C)(C)O[C@@H]1C[C@H]1[C@@H]3C[C@H](F)C4=CC(=O)C=C[C@]4(C)[C@@]3(F)[C@@H](O)C[C@@]12C [Fluocinonide] | 110 | 101
O=C1CCc2ccc(OCCCCN3CCN(c4cccc(Cl)c4Cl)CC3)cc2N1 [Aripiprazole] | 57.3 | 102
CCOc1ccccc1OCCN[C@H](C)Cc1ccc(OC)c(S(N)(=O)=O)c1 [Tamsulosin·HCl] | 65 | 110
C[C@]12CCC(=O)C=C1CC[C@@H]1[C@@H]2[C@@H](O)C[C@@]2(C)[C@H]1CC[C@]2(O)C(=O)CO [Hydrocortisone] | 72.1 | 102

Rewritten comma-delimited: three of the compounds above
SMILES,cell viability (Saos-2),cell viability (U2OS)
OC(c1cc(C(F)(F)F)nc2c(C(F)(F)F)cccc12)C1CCCCN1 (configuration not stated) [Mefloquine . hydrochloride],51,36.2
CCCCN1CCCCC1C(=O)Nc1c(C)cccc1C (configuration not stated) [Bupivacaine hydrochloride monohydrate],67,101
CCN(CC)CCCC(C)Nc1ccnc2cc(Cl)ccc12 (configuration not stated) [Chloroquine Diphosphate],61.2,84.3

Source: the supplement of paper PMC9433722
